According to publication PMC11519790:
Like-named read-outs stand apart in the source and are kept apart here. No constants are given. Whether binding was seen depends on the method and setting. In cells and extracts the contact can be indirect. Some binding calls cover weakened binding; strength is not graded here. Each block holds one molecule with its values, some of them ahead of it.

Sequences of proteins named here, by UniProt entry; tags and fusion partners are left off.
UniProt Q14790: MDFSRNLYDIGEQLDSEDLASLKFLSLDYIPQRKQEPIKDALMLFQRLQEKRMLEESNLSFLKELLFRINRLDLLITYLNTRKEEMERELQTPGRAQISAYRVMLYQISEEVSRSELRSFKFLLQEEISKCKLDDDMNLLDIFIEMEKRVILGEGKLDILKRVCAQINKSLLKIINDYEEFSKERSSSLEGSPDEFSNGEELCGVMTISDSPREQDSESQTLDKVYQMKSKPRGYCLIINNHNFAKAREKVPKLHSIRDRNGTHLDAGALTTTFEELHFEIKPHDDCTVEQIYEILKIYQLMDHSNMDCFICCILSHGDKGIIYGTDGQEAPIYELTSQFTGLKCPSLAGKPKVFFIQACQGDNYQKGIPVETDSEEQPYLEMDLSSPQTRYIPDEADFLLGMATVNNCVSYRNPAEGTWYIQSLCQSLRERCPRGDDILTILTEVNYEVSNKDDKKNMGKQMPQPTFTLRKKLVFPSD
UniProt Q13546: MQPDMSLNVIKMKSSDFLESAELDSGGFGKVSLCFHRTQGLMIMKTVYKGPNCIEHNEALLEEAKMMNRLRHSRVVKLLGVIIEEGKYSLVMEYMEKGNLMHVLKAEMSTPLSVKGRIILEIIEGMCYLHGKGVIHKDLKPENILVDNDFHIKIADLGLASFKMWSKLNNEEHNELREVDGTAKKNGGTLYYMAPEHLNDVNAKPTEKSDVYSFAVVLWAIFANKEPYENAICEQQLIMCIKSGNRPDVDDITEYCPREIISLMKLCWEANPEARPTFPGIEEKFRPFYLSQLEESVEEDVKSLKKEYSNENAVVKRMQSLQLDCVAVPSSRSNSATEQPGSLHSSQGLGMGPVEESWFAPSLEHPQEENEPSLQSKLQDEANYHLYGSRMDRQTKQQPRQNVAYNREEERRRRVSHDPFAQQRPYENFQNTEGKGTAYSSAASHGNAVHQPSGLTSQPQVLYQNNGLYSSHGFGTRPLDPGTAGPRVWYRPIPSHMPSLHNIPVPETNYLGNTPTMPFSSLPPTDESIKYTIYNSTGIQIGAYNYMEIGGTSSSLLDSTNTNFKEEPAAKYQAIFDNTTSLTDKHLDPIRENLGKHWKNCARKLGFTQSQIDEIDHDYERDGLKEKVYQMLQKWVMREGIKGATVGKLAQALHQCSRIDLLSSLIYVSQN

Key:
[1] = target: T1, Pyrin (human (endogenous in MHCC97-H)) (UniProt O15553); test: co-IP; endogenous proteins of LV-veh and LV-D (DNASE1L3-overexpressing) MHCC97-H HCC cells, with or without sorafenib (20 uM, 24 h); also done in LV-R206C cells (interaction markedly reduced) and ShAIM2 cells (complex formation diminished); precipitating antibody not told in the text shown
T1 sequence: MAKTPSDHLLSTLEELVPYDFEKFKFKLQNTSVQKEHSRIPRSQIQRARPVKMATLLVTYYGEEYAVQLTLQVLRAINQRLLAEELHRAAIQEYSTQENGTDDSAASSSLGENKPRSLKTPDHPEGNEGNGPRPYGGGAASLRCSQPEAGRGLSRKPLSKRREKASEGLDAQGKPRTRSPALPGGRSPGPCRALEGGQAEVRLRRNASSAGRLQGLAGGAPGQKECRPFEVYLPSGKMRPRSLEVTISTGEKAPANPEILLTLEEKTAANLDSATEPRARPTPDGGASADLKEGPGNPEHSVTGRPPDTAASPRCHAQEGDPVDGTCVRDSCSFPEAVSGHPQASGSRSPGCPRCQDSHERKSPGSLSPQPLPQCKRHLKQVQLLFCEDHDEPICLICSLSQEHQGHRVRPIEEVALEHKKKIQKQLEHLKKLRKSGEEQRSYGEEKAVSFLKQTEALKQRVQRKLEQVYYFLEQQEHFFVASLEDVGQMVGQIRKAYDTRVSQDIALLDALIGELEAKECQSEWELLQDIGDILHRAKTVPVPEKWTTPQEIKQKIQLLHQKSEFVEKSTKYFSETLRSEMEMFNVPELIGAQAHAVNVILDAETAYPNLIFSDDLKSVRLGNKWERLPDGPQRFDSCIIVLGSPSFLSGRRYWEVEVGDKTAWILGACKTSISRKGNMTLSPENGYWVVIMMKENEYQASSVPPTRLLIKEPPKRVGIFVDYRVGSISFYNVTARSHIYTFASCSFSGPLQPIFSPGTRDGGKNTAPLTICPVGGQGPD

[2] = target: T1, Pyrin (human (endogenous in MHCC97-H)); test: as above; remark: listed apart in the source

- binding [1]: binds
Molecule: caspase-8 (from UniProt Q14790 1-479)

- binding [1]: binds
Molecule: receptor-interacting protein kinase 1 (from UniProt Q13546 1-671)

- binding [2]: binds
B1: absent in melanoma 2 (protein, UniProt O14862 1-343)
chain: MESKYKEILLLTGLDNITDEELDRFKFFLSDEFNIATGKLHTANRIQVATLMIQNAGAVSAVMKTIRIFQKLNYMLLAKRLQEEKEKVDKQYKSVTKPKPLSQAEMSPAASAAIRNDVAKQRAAPKVSPHVKPEQKQMVAQQESIREGFQKRCLPVMVLKAKKPFTFETQEGKQEMFHATVATEKEFFFVKVFNTLLKDKFIPKRIIIIARYYRHSGFLEVNSASRVLDAESDQKVNVPLNIIRKAGETPKINTLQTQPLGTIVNGLFVVQKVTEKKKNILFDLSDNTGKMEVLGVRNEDTMKCKEGDKVRLTFFTLSKNGEKLQLTSGVHSTIKVIKAKKKT
